Reference: article PMC4669414 (Scientific Reports, 2015)

System: PC9/G cells
Assay: cells
Conditions: Homo sapiens, 72 h

- IC50: 4.36 ± 0.47 µM
Compound: COc1cc2ncnc(Nc3ccc(F)c(Cl)c3)c2cc1OCCCN1CCOCC1 [Gef, Gefitinib]
